Laboratory results taken from patent US20150152088A1, “ALKYNYL HETEROAROMATIC COMPOUND AND USE THEREOF” (Nanjing Sanhome Pharmaceutical Co., Ltd., priority 2012, published 2015).
pIC50: −log10 of the molar value.

Tested on: K562 chronic myelogenous leukemia cells
Assay: MTT assay, in vitro inhibitory activity on cells
Type: cell-based
Conditions: Homo sapiens, K562, 48 h, typically 48 hours
Source text: In this example, MTT assay was used to detect in vitro inhibitory activity of the compounds prepared according to the above examples on the cells. […] AP24534 was purchased from Shanghai Xinkuo Chemical Technology Co., Ltd., China.
Dimethyl sulfoxide (DMSO) is capable of dissolving formazan in cells, and absorbance value can be measured at a wavelength of 490 nm by an enzyme-linked immunometric meter, which reflects the number of living cells. Within a certain range of the number of cells, the amount of MTT crystals formed is proportional to the number of living cells.
1. […] 2. Culturing in a 37° C., 5% CO2 incubator and keeping the cells adhering to the wall of the well. 3. […] 4. Carefully removing the supernatant, gently washing with PBS and discarding the supernatant again. 5. […] 6. Terminating culturing and carefully discarding the medium in each well. 7. Adding 150 μl dimethyl sulfoxide into each well, shaking for 10 minutes at low speed in a shaker, to make crystals fully dissolved. 8. Measuring the absorbance of each well at 490 nm by an enzyme-linked immunometric meter. 9. Calculating IC50 values.

- pIC50: 5.07
Structure (SMILES): Cc1ccc(NC(=O)c2ccc(CN3CCN(C)CC3)cc2)cc1Nc1nccc(-c2cccnc2)n1 [Imatinib, reference compound]
